The results in this text go back to the supplement of paper PMC12595434, “Development of retinoid nuclear receptor pathway antagonists through targeting aldehyde dehydrogenase 1A3” (iScience, 2025).

Protein sequences, listed by entry. Tags and fused reporters are not part of them. Lines headed by an entry give the natural chain unless they say otherwise; changes in a name come on top.
UniProt Q96AG3: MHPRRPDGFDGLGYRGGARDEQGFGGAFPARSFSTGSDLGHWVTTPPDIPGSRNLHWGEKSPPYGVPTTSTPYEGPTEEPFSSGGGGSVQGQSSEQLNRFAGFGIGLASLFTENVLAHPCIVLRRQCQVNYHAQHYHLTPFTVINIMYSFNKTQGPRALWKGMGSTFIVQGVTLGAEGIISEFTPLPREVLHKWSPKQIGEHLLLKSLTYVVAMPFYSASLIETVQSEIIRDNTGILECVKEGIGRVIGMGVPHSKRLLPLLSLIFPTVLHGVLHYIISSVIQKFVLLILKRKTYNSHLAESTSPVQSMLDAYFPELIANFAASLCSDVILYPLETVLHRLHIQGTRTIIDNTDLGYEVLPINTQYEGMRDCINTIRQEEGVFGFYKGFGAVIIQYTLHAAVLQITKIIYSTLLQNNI
UniProt Q969R5, whole entry: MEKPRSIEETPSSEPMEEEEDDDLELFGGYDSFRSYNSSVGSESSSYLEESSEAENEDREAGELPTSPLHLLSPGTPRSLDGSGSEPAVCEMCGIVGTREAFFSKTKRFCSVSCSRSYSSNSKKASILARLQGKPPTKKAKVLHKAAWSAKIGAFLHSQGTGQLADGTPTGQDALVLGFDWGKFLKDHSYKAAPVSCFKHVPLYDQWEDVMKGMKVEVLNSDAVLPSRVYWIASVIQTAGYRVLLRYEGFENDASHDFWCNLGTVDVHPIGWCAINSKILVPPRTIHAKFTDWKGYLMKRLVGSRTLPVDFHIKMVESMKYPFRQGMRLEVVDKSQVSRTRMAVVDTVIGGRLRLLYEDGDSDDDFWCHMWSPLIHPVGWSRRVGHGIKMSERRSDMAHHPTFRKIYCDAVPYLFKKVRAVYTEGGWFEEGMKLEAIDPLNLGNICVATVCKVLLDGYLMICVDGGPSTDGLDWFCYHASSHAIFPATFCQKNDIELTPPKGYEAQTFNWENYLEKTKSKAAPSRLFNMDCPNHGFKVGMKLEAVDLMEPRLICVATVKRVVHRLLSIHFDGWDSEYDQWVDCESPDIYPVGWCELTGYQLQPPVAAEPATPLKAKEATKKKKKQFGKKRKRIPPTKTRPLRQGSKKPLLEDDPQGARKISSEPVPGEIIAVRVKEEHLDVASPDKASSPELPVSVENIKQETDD
UniProt Q8WZA1: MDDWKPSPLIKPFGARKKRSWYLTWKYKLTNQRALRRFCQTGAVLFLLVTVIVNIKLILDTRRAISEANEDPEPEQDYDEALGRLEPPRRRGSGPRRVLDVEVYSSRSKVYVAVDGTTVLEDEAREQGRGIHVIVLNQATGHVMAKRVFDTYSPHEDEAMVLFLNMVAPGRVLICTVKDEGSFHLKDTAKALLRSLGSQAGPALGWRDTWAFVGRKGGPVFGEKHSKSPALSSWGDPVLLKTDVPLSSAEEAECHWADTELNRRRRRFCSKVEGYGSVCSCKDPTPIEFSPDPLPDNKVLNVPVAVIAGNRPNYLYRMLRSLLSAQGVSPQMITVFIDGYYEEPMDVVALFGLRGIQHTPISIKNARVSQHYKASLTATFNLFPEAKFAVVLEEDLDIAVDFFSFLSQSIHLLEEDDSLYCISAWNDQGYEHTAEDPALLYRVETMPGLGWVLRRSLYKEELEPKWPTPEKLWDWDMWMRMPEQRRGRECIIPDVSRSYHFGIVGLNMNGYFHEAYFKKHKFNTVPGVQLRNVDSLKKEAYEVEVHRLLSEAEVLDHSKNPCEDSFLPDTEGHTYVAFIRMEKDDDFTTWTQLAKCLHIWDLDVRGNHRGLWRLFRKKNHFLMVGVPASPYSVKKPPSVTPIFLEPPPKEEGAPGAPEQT
UniProt Q96A19: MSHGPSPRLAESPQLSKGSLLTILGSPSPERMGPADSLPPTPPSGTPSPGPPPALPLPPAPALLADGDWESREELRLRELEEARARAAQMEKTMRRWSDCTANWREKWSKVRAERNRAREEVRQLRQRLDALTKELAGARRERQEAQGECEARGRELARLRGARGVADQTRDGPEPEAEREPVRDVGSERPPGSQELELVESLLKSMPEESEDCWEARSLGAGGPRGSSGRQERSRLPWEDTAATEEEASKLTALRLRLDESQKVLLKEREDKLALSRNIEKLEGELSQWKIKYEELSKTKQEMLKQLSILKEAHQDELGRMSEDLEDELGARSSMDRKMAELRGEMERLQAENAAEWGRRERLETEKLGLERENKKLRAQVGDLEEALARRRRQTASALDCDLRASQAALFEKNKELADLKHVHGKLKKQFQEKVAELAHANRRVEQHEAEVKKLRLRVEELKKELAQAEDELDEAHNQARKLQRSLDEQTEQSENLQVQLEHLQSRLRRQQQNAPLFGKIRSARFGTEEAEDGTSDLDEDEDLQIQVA
UniProt Q92979: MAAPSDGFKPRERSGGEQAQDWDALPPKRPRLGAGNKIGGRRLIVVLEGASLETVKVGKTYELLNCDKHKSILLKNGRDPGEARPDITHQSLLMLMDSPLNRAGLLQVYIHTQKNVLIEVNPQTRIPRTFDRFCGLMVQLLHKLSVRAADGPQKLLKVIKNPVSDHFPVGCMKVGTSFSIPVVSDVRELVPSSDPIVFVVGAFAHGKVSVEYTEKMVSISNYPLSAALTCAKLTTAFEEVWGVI
UniProt Q969G6: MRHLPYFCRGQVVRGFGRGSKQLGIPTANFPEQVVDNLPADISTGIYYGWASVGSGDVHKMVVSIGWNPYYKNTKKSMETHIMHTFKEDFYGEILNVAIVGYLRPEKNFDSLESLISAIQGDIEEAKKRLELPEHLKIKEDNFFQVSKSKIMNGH
UniProt Q8WYA0: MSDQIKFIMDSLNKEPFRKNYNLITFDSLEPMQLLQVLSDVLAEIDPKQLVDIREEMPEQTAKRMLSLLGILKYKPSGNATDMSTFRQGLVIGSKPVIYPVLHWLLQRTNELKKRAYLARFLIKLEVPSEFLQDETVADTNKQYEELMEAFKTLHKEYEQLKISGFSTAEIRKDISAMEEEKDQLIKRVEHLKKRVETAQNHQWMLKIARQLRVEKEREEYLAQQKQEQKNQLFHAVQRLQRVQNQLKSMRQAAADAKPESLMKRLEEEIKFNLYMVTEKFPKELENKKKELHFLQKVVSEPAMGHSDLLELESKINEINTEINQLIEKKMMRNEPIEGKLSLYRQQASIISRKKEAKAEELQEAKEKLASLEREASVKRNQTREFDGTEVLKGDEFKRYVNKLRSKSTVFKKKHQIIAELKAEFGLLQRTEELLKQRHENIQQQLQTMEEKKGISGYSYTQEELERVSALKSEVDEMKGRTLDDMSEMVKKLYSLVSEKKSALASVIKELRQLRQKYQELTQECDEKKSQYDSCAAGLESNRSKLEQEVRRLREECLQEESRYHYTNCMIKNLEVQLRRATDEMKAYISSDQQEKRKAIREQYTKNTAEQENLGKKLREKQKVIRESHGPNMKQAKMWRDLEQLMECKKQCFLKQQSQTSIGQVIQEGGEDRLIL
UniProt Q969Y2: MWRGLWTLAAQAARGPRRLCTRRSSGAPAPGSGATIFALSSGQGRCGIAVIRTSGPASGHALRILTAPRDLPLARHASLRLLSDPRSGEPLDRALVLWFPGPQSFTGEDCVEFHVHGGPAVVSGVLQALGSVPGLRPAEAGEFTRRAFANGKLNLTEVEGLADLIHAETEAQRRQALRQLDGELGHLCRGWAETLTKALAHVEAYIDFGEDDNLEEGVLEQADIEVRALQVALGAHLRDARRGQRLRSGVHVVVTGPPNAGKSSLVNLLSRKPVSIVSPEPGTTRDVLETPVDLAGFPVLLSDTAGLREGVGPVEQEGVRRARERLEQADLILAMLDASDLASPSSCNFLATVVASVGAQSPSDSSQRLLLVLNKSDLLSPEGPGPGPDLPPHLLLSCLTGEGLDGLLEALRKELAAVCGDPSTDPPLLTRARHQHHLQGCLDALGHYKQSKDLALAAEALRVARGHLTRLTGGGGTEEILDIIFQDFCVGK
UniProt Q96BS2: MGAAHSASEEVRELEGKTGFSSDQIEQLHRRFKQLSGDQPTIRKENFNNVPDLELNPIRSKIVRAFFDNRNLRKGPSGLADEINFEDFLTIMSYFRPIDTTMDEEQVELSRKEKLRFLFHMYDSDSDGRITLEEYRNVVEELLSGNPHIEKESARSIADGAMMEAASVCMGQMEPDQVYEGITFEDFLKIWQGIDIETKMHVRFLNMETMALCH
UniProt Q92674: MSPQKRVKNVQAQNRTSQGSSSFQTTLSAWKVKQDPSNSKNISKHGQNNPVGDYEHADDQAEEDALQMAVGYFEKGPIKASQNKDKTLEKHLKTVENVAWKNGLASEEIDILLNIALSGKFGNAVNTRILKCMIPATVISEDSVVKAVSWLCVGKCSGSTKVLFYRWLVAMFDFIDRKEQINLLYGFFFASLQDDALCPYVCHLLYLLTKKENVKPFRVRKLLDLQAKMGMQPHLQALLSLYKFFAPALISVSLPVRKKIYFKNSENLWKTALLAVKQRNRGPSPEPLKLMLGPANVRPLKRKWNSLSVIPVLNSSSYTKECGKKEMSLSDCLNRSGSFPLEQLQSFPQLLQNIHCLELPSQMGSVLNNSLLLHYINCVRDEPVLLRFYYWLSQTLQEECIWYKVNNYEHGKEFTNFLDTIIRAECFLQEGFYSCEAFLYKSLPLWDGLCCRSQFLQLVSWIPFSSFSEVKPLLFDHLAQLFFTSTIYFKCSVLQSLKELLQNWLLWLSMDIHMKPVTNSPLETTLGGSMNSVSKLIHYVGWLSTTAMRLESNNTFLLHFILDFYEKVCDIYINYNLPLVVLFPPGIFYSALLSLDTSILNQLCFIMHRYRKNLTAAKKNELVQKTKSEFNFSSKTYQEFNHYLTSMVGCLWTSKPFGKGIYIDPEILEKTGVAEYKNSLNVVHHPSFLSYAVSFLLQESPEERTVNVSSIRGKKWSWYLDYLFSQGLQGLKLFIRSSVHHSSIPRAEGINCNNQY
UniProt Q8WZA0: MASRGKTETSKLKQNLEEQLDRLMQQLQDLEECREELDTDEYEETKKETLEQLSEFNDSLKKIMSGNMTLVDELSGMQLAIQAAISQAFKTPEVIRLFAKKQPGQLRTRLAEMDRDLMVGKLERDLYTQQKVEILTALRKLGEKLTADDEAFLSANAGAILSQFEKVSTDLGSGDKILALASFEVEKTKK
UniProt Q96B01: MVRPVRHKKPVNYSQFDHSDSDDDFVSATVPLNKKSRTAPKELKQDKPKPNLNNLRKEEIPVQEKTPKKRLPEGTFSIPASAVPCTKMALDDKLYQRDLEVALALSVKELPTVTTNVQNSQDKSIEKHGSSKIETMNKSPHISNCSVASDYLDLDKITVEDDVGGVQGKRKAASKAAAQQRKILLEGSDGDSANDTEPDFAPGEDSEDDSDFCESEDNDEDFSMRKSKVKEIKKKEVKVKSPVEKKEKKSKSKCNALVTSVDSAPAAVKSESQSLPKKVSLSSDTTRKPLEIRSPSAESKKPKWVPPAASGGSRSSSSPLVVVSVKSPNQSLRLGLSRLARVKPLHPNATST
UniProt Q96BT3, whole entry: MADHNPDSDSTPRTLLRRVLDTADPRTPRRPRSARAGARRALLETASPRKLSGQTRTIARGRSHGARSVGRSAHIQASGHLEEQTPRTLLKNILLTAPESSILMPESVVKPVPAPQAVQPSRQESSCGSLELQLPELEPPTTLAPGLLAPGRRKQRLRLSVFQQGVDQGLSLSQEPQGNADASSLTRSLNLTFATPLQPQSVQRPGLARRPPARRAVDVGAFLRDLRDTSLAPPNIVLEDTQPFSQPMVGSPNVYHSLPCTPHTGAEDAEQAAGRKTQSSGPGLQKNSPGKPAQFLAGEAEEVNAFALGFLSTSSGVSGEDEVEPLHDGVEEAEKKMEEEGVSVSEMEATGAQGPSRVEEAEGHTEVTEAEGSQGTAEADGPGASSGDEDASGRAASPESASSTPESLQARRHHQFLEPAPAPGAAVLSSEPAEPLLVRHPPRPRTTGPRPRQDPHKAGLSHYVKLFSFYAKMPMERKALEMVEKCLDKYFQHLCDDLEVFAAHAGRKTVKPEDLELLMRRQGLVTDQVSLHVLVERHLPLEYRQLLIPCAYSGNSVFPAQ
UniProt Q92785, whole entry: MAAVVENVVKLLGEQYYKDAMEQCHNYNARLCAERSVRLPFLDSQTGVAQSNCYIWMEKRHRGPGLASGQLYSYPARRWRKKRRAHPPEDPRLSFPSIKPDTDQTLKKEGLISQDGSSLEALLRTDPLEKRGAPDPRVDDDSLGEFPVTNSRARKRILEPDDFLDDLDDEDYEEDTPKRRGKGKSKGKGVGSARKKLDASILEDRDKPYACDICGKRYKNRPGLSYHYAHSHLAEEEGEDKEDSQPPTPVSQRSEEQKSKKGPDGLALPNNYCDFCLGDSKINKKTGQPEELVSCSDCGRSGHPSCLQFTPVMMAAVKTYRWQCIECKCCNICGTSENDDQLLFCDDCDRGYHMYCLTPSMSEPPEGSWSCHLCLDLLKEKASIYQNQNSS
UniProt Q92928: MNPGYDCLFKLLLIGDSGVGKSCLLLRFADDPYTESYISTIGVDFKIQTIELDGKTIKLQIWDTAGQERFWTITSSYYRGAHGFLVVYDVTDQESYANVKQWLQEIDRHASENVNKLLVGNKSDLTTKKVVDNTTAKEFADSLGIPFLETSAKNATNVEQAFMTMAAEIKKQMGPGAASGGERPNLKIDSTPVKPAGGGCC

The other results are listed elsewhere or left out. Single values of this set are uncertain.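 Many melting curves are irregular; where none melted, Tm was taken as 64 °C.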

Compound in one assay: CCc1cnccc1C(=O)Nc1cc2c(cc1F)NC(=O)CC2
In words: melting temperature shift (DMSO Tm minus MBE1-treated Tm) in cellular thermal proteome profiling; higher = less thermal stabilization by MBE1 (negative = stabilized by MBE1). The settings on record: A375; MBE1 concentration: 100 nM.
Regarding RQCD1 (UniProt Q92600), the melting temperature shift was -0.238 °C.

For the target UniProt Q92614, the melting temperature shift stood at 0.366 °C.

Regarding ISG20 (UniProt Q96AZ6), the melting temperature shift came out at 1.06 °C.

As for ACSF2 (UniProt Q96CM8), the melting temperature shift came out at 0.214 °C.

Regarding MRPS27 (UniProt Q92552), the melting temperature shift was 0.833 °C.

In the case of SLC25A46 (UniProt Q96AG3), the melting temperature shift is -0.449 °C.

For PYCR2 (UniProt Q96C36), the melting temperature shift came to 0.055 °C.

Take DGCR14 (UniProt Q96DF8): the melting temperature shift was determined as 0.177 °C.

Consider UniProt Q969T3, for which the melting temperature shift was -0.999 °C.

For C12ORF43 (UniProt Q96C57), the melting temperature shift is -3.49 °C.

LPP (UniProt Q93052): the melting temperature shift was -1.85 °C.

With UniProt Q969R5, the melting temperature shift was -0.231 °C.

Take DNAJC19 (UniProt Q96DA6): the melting temperature shift is -0.61 °C.

Regarding TRUB1 (UniProt Q8WWH5), the melting temperature shift is -0.287 °C.

On to MRPL38 (UniProt Q96DV4), for which the melting temperature shift was 0.116 °C.

Turning to FAF2 (UniProt Q96CS3), the melting temperature shift is 0.513 °C.

For UniProt Q92599, the melting temperature shift was -2.6 °C.

Regarding POMGNT1 (UniProt Q8WZA1), the melting temperature shift is -0.188 °C.

Turning to ERGIC1 (UniProt Q969X5), the melting temperature shift is -1.23 °C.

As for CCDC102A (UniProt Q96A19), the melting temperature shift was -0.659 °C.

Consider EMG1 (UniProt Q92979), for which the melting temperature shift is -2.01 °C.

On to RFK (UniProt Q969G6), for which the melting temperature shift is -0.771 °C.

Regarding IFT81 (UniProt Q8WYA0), the melting temperature shift is -0.358 °C.

GTPBP3 (UniProt Q969Y2): the melting temperature shift was -1.33 °C.

UniProt Q969X0: the melting temperature shift stood at 0.183 °C.

On to PRPF31 (UniProt Q8WWY3), for which the melting temperature shift was -0.34 °C.

TESC (UniProt Q96BS2): the melting temperature shift amounted to 1.37 °C.

For the target VPS33A (UniProt Q96AX1), the melting temperature shift is -0.0141 °C.

As for UniProt Q92674, the melting temperature shift was -1.49 °C.

Regarding LZIC (UniProt Q8WZA0), the melting temperature shift was -3.88 °C.

For the target RAD51AP1 (UniProt Q96B01), the melting temperature shift is -0.49 °C.

DLG3 (UniProt Q92796): the melting temperature shift amounted to 0.244 °C.

Take UniProt Q96BT3: the melting temperature shift is -4.09 °C.

Take DPF2 (UniProt Q92785): the melting temperature shift was -0.538 °C.

As for RTN4IP1 (UniProt Q8WWV3), the melting temperature shift amounted to 1.4 °C.

With UniProt Q92928, the melting temperature shift was -3.95 °C.

As to NUP205 (UniProt Q92621), the melting temperature shift was 1.09 °C.

The same assay, now with this note: A375; MBE1 concentration: 1 uM.
Consider RQCD1 (UniProt Q92600), for which the melting temperature shift came to 0.232 °C.

Consider UniProt Q92614, for which the melting temperature shift is -0.122 °C.

ISG20 (UniProt Q96AZ6): the melting temperature shift turned out to be 0.812 °C.

As to ACSF2 (UniProt Q96CM8), the melting temperature shift came to 0.977 °C.

For the target MRPS27 (UniProt Q92552), the melting temperature shift was 0.116 °C.

For SLC25A46 (UniProt Q96AG3), the melting temperature shift worked out at 0.385 °C.

In the case of PYCR2 (UniProt Q96C36), the melting temperature shift is 0.0916 °C.

For DGCR14 (UniProt Q96DF8), the melting temperature shift was -2.08 °C.

UniProt Q969T3: the melting temperature shift was -0.589 °C.

Regarding C12ORF43 (UniProt Q96C57), the melting temperature shift is -1.17 °C.

For LPP (UniProt Q93052), the melting temperature shift was -0.127 °C.

UniProt Q969R5: the melting temperature shift was -1.12 °C.

Turning to DNAJC19 (UniProt Q96DA6), the melting temperature shift was found to be 0.463 °C.

As to TRUB1 (UniProt Q8WWH5), the melting temperature shift was determined as 0.574 °C.

Turning to MRPL38 (UniProt Q96DV4), the melting temperature shift turned out to be 0.957 °C.

On to FAF2 (UniProt Q96CS3), for which the melting temperature shift came to 0.183 °C.

On to UniProt Q92599, for which the melting temperature shift stood at 0.0378 °C.

On to POMGNT1 (UniProt Q8WZA1), for which the melting temperature shift stood at 0.0794 °C.

For the target ERGIC1 (UniProt Q969X5), the melting temperature shift is -0.482 °C.

Consider CCDC102A (UniProt Q96A19), for which the melting temperature shift was 0.0916 °C.

Consider EMG1 (UniProt Q92979), for which the melting temperature shift is -1.29 °C.

Take RFK (UniProt Q969G6): the melting temperature shift worked out at 0.203 °C.

IFT81 (UniProt Q8WYA0): the melting temperature shift is -0.259 °C.

As for GTPBP3 (UniProt Q969Y2), the melting temperature shift is 1.11 °C.

On to UniProt Q969X0, for which the melting temperature shift is -0.626 °C.

Regarding PRPF31 (UniProt Q8WWY3), the melting temperature shift was -0.372 °C.

In the case of TESC (UniProt Q96BS2), the melting temperature shift was determined as 0.464 °C.

Take VPS33A (UniProt Q96AX1): the melting temperature shift is -0.299 °C.

As for UniProt Q92674, the melting temperature shift is 3.86 °C.

In the case of LZIC (UniProt Q8WZA0), the melting temperature shift was -0.91 °C.

Turning to RAD51AP1 (UniProt Q96B01), the melting temperature shift was -0.868 °C.

For DLG3 (UniProt Q92796), the melting temperature shift is 0.0183 °C.

With UniProt Q96BT3, the melting temperature shift was -0.733 °C.

For the target DPF2 (UniProt Q92785), the melting temperature shift was -0.391 °C.

For RTN4IP1 (UniProt Q8WWV3), the melting temperature shift came out at 0.147 °C.

With UniProt Q92928, the melting temperature shift turned out to be 4.91 °C.

Regarding NUP205 (UniProt Q92621), the melting temperature shift is 0.891 °C.
